The target in the assay is Pontin (flag-tagged) (human) (UniProt Q9Y265). The assay is described as follows: co-IP; cell extracts immunoprecipitated with 2 ug mouse anti-flag tag antibody for 4-6 h, then protein A/G agarose beads overnight; washed, SDS-PAGE, immunoblot; U87MG cells. For orientation: In western blotting, separated proteins are transferred to a membrane and probed.

By UniProt entry, the sequences of proteins in these tests, tags left out.
UniProt Q9Y265: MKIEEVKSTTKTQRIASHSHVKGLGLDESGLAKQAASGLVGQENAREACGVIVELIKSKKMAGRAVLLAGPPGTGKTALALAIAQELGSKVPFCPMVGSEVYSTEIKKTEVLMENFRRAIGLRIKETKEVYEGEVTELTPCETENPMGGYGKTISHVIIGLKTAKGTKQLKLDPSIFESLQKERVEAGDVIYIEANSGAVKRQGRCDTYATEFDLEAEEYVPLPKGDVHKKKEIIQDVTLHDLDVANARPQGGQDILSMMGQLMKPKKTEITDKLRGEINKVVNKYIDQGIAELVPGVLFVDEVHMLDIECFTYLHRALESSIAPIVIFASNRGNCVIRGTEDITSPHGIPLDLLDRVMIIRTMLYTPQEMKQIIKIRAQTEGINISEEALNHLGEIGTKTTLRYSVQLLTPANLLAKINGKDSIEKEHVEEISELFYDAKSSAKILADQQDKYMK
UniProt Q9UJU2: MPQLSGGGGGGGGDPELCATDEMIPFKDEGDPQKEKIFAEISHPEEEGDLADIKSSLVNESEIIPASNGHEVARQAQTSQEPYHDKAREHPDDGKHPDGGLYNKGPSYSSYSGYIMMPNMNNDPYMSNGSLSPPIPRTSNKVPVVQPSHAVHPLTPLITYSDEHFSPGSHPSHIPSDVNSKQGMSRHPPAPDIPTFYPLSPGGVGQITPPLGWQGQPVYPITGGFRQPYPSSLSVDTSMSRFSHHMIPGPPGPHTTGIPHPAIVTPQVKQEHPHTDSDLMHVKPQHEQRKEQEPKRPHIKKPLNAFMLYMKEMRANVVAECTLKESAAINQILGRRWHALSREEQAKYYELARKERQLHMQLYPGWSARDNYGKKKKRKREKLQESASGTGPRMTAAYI

No constants are given. Whether binding was seen depends on the method and setting. Binding seen in cells or lysates may run through a third protein. Some entries that bind do so weakly or less than the wild type.

For the substance “endogenous LEF1 (from UniProt Q9UJU2 1-399)”, the binding entry was “binds”.

As for “HA-tagged LEF1 (from UniProt Q9UJU2 1-399)”, the binding result was “binds”.

Values taken from PMC9509381.
